{"sequences": {"note": "Amino acid sequences for entries named in this document (tags omitted).", "UniProt Q04206, whole entry": "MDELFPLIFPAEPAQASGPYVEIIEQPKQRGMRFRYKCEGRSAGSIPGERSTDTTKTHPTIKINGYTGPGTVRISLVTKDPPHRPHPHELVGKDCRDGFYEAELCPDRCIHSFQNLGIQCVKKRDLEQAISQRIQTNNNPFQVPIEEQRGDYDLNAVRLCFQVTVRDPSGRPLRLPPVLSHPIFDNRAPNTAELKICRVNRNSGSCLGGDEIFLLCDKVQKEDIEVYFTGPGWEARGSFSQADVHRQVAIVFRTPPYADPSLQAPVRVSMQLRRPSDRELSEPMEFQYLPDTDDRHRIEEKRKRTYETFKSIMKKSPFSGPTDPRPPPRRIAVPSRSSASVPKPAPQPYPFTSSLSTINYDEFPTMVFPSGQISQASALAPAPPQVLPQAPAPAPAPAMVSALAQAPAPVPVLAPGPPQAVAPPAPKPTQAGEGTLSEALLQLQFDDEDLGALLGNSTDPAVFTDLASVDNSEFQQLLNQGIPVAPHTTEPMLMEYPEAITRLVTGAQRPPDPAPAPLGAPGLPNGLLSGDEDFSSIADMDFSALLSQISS", "UniProt O15527, whole entry": "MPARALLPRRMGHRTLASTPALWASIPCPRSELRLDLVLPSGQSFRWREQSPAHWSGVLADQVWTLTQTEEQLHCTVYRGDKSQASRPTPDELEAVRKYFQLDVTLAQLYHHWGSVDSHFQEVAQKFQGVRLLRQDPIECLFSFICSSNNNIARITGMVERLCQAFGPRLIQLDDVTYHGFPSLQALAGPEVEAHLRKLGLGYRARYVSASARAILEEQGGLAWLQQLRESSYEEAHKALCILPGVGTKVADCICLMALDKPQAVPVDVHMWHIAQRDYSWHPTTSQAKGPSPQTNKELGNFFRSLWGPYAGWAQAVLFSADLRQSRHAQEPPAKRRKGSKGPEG"}, "source": "paper PMC11375530", "key": {"[1]": {"target": "NF-kB p65 (Homo sapiens (A549 cells)) (UniProt Q04206)", "test": "pull-down", "conditions": "nuclear extract of H2O2-treated A549 cells, immunoblot, pull-down: 4 C, 12 h, 1 mM PMSF, protein in an extract"}, "[2]": {"target": "OGG1 (8-oxoguanine DNA glycosylase) (UniProt O15527)", "test": "EMSA", "conditions": "EMSA: DNA-binding buffer (composition not given), 10 min on ice then 10 min at 37 C, 7% native PAGE in 1x TBE, commercial protein, label: 5'-FAM on strand 2"}, "[3]": {"target": "NF-kB p65 (Homo sapiens (A549 cells)) (UniProt Q04206)", "test": "EMSA", "conditions": "nuclear extract, EMSA: DNA-binding buffer (composition not given), 10 min on ice then 10 min at 37 C, 7% native PAGE in 1x TBE, protein in an extract, label: 5'-FAM on strand 2"}}, "note": "For at least one entry, the source does not settle the construct or the ends of the probe. The comparison behind a weaker result is the experiment's own reference, which may not be listed here. For part of these data: At least one verdict rests on a figure or table, not on a statement of the authors. For part of these data: Results from cells or extracts need not show a direct contact."}
{"sequence": "CGGGCGGGCGGGAGGGCTGGCGGGCGGCCCCC (double strand) [Biotin-G-oligo]", "values": [{"measurement": "binding result", "setting": "[1]; PBS washes", "value": "binds more weakly"}]}
{"sequence": "CGGGCGGGCGGGAGGGCTGGCGGGCGGCCCCC (double strand) [Biotin-8-oxoG-oligo]", "values": [{"measurement": "binding result", "setting": "[1]; 8-oxoG at position 12 of strand 1 (printed ...CGGoGAGGG...), PBS …", "value": "binds"}]}
{"sequence": "CGGGCGGGCGGGAGGGCTGGCGGGCGGCCCCC (double strand) [8-oxoG-SYT7 (FAM)]", "values": [{"measurement": "binding result", "setting": "[2]; 10 uM Th5487 (inhibits binding), 100 ng OGG1, 8-oxoG at position 12 of strand 1 (printed ...CGGoGAGGG...)", "value": "binds more weakly"}, {"measurement": "binding result", "setting": "[3]; band lost with anti-NF-kB antibody, 8-oxoG at position 12 of strand 1 (printed ...CGGoGAGGG...)", "value": "binds"}]}
{"sequence": "CGGGCGGGCGGGAGGGCTGGCGGGCGGCCCCC (double strand) [G-SYT7 (FAM)]", "values": [{"measurement": "binding result", "setting": "[2]", "value": "binds more weakly"}, {"measurement": "binding result", "setting": "[3]", "value": "binds more weakly"}]}
